PubChem BioAssay AID1487 (National Center for Advancing Translational Sciences (NCATS), 2009)
Some of the results follow. Shown are side measurements of this screen, not its main read-out; they come without a call. Most of these compounds were active or inconclusive in the main read-out, so they are no random draw. Words in brackets tell the shape of the fitted curve; partial curves, single points and poor fits give uncertain potencies.

Assay: qHTS Assay for Modulators of Lamin A Splicing
Conditions: HeLa LMNA splicing GFP/RFP minigene ratio, 48 h
Summary of the method: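 S3 HeLa stable clones carrying a lamin A-EGFP splicing minigene plus DsRed2 were seeded at 600 cells/well in Opti-MEM with 2% FBS, pin-dosed and incubated 48 h at 37°C. Acumen cytometry (488 nm) gave the GFP/RFP total-intensity ratio.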

[1] = measured here: RFP viability control channel
[2] = measured here: GFP splicing reporter channel

Structure (SMILES)	AC50 [1]	AC50 [2]
O=C(COc1ccc(C(=O)c2ccccc2)cc1)NCC1CCCCC1	25.1 µM [rising, single point]	
CCCNS(=O)(=O)c1ccc(CCC(=O)N2CCN(c3ccc(OC)cc3)CC2)cc1	14.1 µM [rising, single point]	
CN(C)CCN1CCc2ccccc21	15.8 µM [rising, partial curve]	11.2 µM [rising, partial curve]
Cc1cc(SCc2ccccc2)nc(=O)[nH]1	2 µM [falling, full curve, poor fit]	
Cc1ccc(CNC(=O)C2CCN(c3nc4ccc(C)cc4[nH]3)CC2)cc1	6.31 µM [falling, single point]	
COc1cccc(-c2cncnc2NCCc2cnc[nH]2)c1	0.316 µM [falling, full curve, poor fit]	
O=C(N/N=C/c1cn(-c2ccccc2)nc1-c1cccs1)c1ccc(Cl)cc1	15.8 µM [rising, partial curve]	10 µM [rising, partial curve]
CC(C)(CC(=O)O)CC(=O)NCc1c(Cl)cccc1Sc1ccc(Cl)cc1	35.5 µM [falling, partial curve, poor fit]	
COc1cccc(C(=O)NC(c2ccc(Cl)cc2)c2cc(Cl)c3cccnc3c2O)c1 (centres undefined)	31.6 µM [falling, single point]	35.5 µM [falling, single point]
Cc1oc2ccc(O)cc2c1C(=O)c1ccc(Cl)cc1	31.6 µM [rising, single point]	35.5 µM [rising, single point]
O=C(COc1ccc(F)cc1)Nc1cccc(OCc2cc(=O)n3ccccc3n2)c1	11.2 µM [falling, partial curve]	
O=C(Nc1cccs1)OCCN1CCN(Cc2ccccc2)CCC1=O	20 µM [rising, partial curve, poor fit]	
O=C(Oc1cccc(C(=S)N2CCCCC2)c1)c1ccccc1		15.8 µM [rising, partial curve, poor fit]
Cc1nnc(SCc2nc3sc4c(c3c(=O)[nH]2)CCCC4)n(N)c1=O	0.0794 µM [falling, full curve, poor fit]	
O=C(c1ccc(Br)o1)N1CCc2ccccc21	35.5 µM [falling, partial curve]	12.6 µM [falling, partial curve]
Cc1cc(C=O)c(C)n1-c1ccc(Oc2ccc([N+](=O)[O-])cn2)cc1	2.82 µM [falling, full curve]	5.01 µM [falling, partial curve]
CCCCNC(=S)NNC(=O)CCn1nc(C)c(Br)c1C	22.4 µM [falling, single point]	35.5 µM [falling, single point]
CC(=O)c1c(C)[nH]c(C(=O)N2CCN(c3ccc(F)cc3)CC2)c1C	12.6 µM [rising, single point]	12.6 µM [rising, partial curve, poor fit]
Cc1ccc(Cl)cc1NC(=O)Cn1c(=O)oc2cc(S(=O)(=O)N3CCCCCC3)ccc21		25.1 µM [falling, single point]
O=C(NC(=S)Nc1nc2ccccc2s1)c1ccco1	0.158 µM [falling, full curve, poor fit]	0.2 µM [falling, full curve, poor fit]
NS(=O)(=O)c1ccc(N2N=C(c3ccccc3)CC2c2ccc(F)cc2)cc1 (centres undefined)	35.5 µM [falling, single point]	35.5 µM [falling, single point]
Cc1ccc(NC(=O)c2ccc(=O)n(CC(=O)Nc3cc(C)cc(C)c3)n2)cc1	10 µM [falling, partial curve]	
O=C(N=Nc1ccc(NOC(=O)c2ccccc2Br)cc1)c1ccccc1O	1.26 µM [rising, full curve]	2 µM [rising, partial curve, poor fit]
Cc1ccc(CSc2nc3c(c(N(C)C)n2)CCCC3)cc1	11.2 µM [rising, partial curve, poor fit]	
Cc1cc(NC(=O)CSc2cn(CCNC(=O)c3ccc(F)cc3)c3ccccc23)no1	14.1 µM [rising, partial curve]	10 µM [rising, partial curve, poor fit]
COCCN=c1scc(-c2cccs2)n1/N=C/c1ccc(O)c(O)c1O	35.5 µM [falling, single point]	35.5 µM [falling, single point]
CCN(C(=O)c1cc(S(=O)(=O)N2CCOCC2)cn1C)c1ccc(OC)cc1	25.1 µM [falling, partial curve]	
COc1ccc(/C=C/c2nc3ccccc3n2Cc2ccc(OC)c(OC)c2)cc1	31.6 µM [rising, single point]	20 µM [rising, single point]

Structure (SMILES)	AC50 [1]	AC50 [2]
CC(O)C(=O)N/N=C/c1ccccc1C(=O)O (centres undefined)	25.1 µM [rising, partial curve]	28.2 µM [rising, partial curve, poor fit]
COc1ccc(OC)c(C2C(C(N)=O)=C(C)Nc3nc(-c4cccc(Cl)c4)nn32)c1 (centres undefined)	11.2 µM [rising, single point]	
Cc1ccc(NC(=O)c2ccc([N+](=O)[O-])o2)c(C)c1	22.4 µM [falling, partial curve]	12.6 µM [falling, single point]
COc1ccc(CC2(CO)CCN(C/C=C/c3ccccc3OC)CC2)cc1	3.55 µM [falling, single point]	
Cc1csc(N(C)C(=O)CSc2nnc(COc3cccc4ccccc34)o2)n1	2.51 µM [rising, full curve]	
Cc1ccc(-n2c(N)c(Br)c(=O)[nH]c2=O)cc1C	0.01 µM [rising, full curve, poor fit]	
O=C(Nc1ccc(N2CCCCCC2)cc1)c1ccccc1Cl	4.47 µM [rising, partial curve, poor fit]	
Cc1cc(=O)c2ccccc2n1CC(=O)NCc1ccccc1	22.4 µM [rising, partial curve]	15.8 µM [rising, partial curve, poor fit]
COc1ccc(Nc2oc(-c3ccc(COc4ccc(OC)cc4)o3)nc2C#N)cc1	0.00562 µM [falling, full curve, poor fit]	0.355 µM [falling, full curve, poor fit]
c1ccc(Nc2cc(-c3ccoc3)ncn2)cc1		12.6 µM [falling, partial curve]
O=C(CSc1nc2ccccc2c(=O)n1Cc1ccco1)N1CCCCCC1	20 µM [rising, single point]	31.6 µM [rising, single point]
COc1ccc(N2CCN(C(c3cccs3)C(C)NC(=O)c3ccco3)CC2)cc1 (centres undefined)	17.8 µM [rising, partial curve, poor fit]	
Cc1cccc(C)c1OCC(=O)N/N=C/C=C/c1ccco1	35.5 µM [falling, single point]	
Cc1cc(SCC(=O)c2cccs2)n2nc(C)c(-c3ccccc3)c2n1	35.5 µM [rising, single point]	
Cc1ccc(S(=O)(=O)N2CC=C(c3ccc(F)cc3)CC2)cc1	35.5 µM [rising, single point]	
CC(C[N+](C)(C)C)OC(N)=O (centres undefined)	5.62 µM [rising, single point]	
CNc1nc2c(c(=O)n(C)c(=O)n2C)n1Cc1ccccc1	8.91 µM [rising, partial curve]	
Cc1cccc2c1CC(C)(C)N/C2=C\C(N)=O	6.31 µM [rising, full curve, poor fit]	6.31 µM [rising, full curve, poor fit]
CCc1cccc2c(C(=O)COC(=O)c3ccc(O)cc3)c[nH]c12	35.5 µM [rising, single point]	
Cc1ccc(-n2c(C)cc(C(=O)COc3cccnc3[N+](=O)[O-])c2C)cc1	11.2 µM [rising, partial curve]	10 µM [rising, partial curve, poor fit]
C=C[C@](C)(O)CCC1C(=C)CC(OC(C)=O)C2C(C)(C)CCCC12C (some centres undefined)	35.5 µM [falling, single point]	22.4 µM [falling, partial curve, poor fit]
COCCN(Cc1nc(C2(c3ccc(C)cc3)CCCC2)no1)C(C)C	5.62 µM [falling, full curve]	
CC(=O)c1cccc(N(CC(=O)Nc2ccc(F)cc2)S(C)(=O)=O)c1		11.2 µM [rising, partial curve, poor fit]
CCN(CC)CCNS(=O)(=O)c1ccc(/C=C/C(=O)O)cc1		17.8 µM [falling, partial curve, poor fit]
COc1ccc(-c2nnc3sc(COc4ccc(C)cc4)nn23)cc1	7.94 µM [rising, partial curve]	7.08 µM [rising, partial curve, poor fit]
Cc1ccc(C)c(NC(=O)COC(=O)CC2c3ccccc3CCN2S(=O)(=O)c2ccc(F)cc2)c1 (centres undefined)		0.00891 µM [rising, full curve, poor fit]
Cc1ccc(/C=N\NC(=O)c2ccc(Cn3cc(Br)c([N+](=O)[O-])n3)o2)o1	25.1 µM [falling, single point]	0.2 µM [falling, full curve, poor fit]

A few values from the results shown.
Value of `Cc1ccc(CSc2nc3c(c(N(C)C)n2)CCCC3)cc1` under AC50 [1]: 11.2 µM [rising, partial curve, poor fit]
Value of `O=C(Nc1cccs1)OCCN1CCN(Cc2ccccc2)CCC1=O` under AC50 [1]: 20 µM [rising, partial curve, poor fit]
Value of `Cc1cc(SCC(=O)c2cccs2)n2nc(C)c(-c3ccccc3)c2n1` under AC50 [1]: 35.5 µM [rising, single point]
Value of `CC(O)C(=O)N/N=C/c1ccccc1C(=O)O` (centres undefined) under AC50 [1]: 25.1 µM [rising, partial curve]
